Measured values published in the supplement of paper PMC7661543.
Differences between knockout arms are mostly noise.

System: SKBR3
Assay: relative cell number vs DMSO control (72 h) (% of DMSO); higher = less growth inhibition (more cells)
Procedure: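 QMAP-Seq: a pool of 5 breast cancer cell lines (ZR-75-1, SKBR3, HCC-38, MDA-MB-231, BT-20), each carrying 12 doxycycline-inducible Cas9 sgRNA perturbations (11 knockouts plus non-targeting sgNT), was treated with compounds for 72 h at four 10-fold doses (10 nM-10 uM or 1 nM-1 uM range). Barcodes were amplified and sequenced, and cell number was interpolated from 293T spike-in standard curves. The result is expressed as % of the median of DMSO wells. Two biological replicates.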

C[C@]12CC[C@H](O)CC1=CC[C@@H]1[C@@H]2CC[C@]2(C)C(c3cccnc3)=CC[C@@H]12 [Abiraterone]
Conditions	relative cell number
sgRNA knockout: sgATF3, 1 nM	131
sgRNA knockout: sgATF3, 10 nM	111
sgRNA knockout: sgATF3, 100 nM	139
sgRNA knockout: sgATF3, 1000 nM	84
sgRNA knockout: sgATF4, 1 nM	104
sgRNA knockout: sgATF4, 10 nM	106
sgRNA knockout: sgATF4, 100 nM	99.9
sgRNA knockout: sgATF4, 1000 nM	94.3
sgRNA knockout: sgATF6, 1 nM	92.3
sgRNA knockout: sgATF6, 10 nM	99.2
sgRNA knockout: sgATF6, 100 nM	105
sgRNA knockout: sgATF6, 1000 nM	105
sgRNA knockout: sgATG7, 1 nM	102
sgRNA knockout: sgATG7, 10 nM	125
sgRNA knockout: sgATG7, 100 nM	104
sgRNA knockout: sgATG7, 1000 nM	117
sgRNA knockout: sgERN1, 1 nM	108
sgRNA knockout: sgERN1, 10 nM	122
sgRNA knockout: sgERN1, 100 nM	123
sgRNA knockout: sgERN1, 1000 nM	112
sgRNA knockout: sgHSF1, 1 nM	94.1
sgRNA knockout: sgHSF1, 10 nM	103
sgRNA knockout: sgHSF1, 100 nM	92.8
sgRNA knockout: sgHSF1, 1000 nM	101
sgRNA knockout: sgHSF2, 1 nM	100
sgRNA knockout: sgHSF2, 10 nM	118
sgRNA knockout: sgHSF2, 100 nM	97.7
sgRNA knockout: sgHSF2, 1000 nM	93.7
sgRNA knockout: sgKEAP1, 1 nM	111
sgRNA knockout: sgKEAP1, 10 nM	111
sgRNA knockout: sgKEAP1, 100 nM	104
sgRNA knockout: sgKEAP1, 1000 nM	107
sgRNA knockout: sgNFE2L2, 1 nM	111
sgRNA knockout: sgNFE2L2, 10 nM	117
sgRNA knockout: sgNFE2L2, 100 nM	105
sgRNA knockout: sgNFE2L2, 1000 nM	103
sgRNA knockout: sgSLC35F2, 1 nM	109
sgRNA knockout: sgSLC35F2, 10 nM	90.8
sgRNA knockout: sgSLC35F2, 100 nM	102
sgRNA knockout: sgSLC35F2, 1000 nM	85
sgRNA knockout: sgXBP1, 1 nM	124
sgRNA knockout: sgXBP1, 10 nM	118
sgRNA knockout: sgXBP1, 100 nM	128
sgRNA knockout: sgXBP1, 1000 nM	95.4

CC(C)(C#N)c1cc(Cn2cncn2)cc(C(C)(C)C#N)c1 [Anastrozole]
Conditions	relative cell number
sgRNA knockout: sgATF3, 1 nM	131
sgRNA knockout: sgATF3, 10 nM	121
sgRNA knockout: sgATF3, 100 nM	137
sgRNA knockout: sgATF3, 1000 nM	119
sgRNA knockout: sgATF4, 1 nM	112
sgRNA knockout: sgATF4, 10 nM	101
sgRNA knockout: sgATF4, 100 nM	102
sgRNA knockout: sgATF4, 1000 nM	93.6
sgRNA knockout: sgATF6, 1 nM	107
sgRNA knockout: sgATF6, 10 nM	102
sgRNA knockout: sgATF6, 100 nM	108
sgRNA knockout: sgATF6, 1000 nM	102
sgRNA knockout: sgATG7, 1 nM	120
sgRNA knockout: sgATG7, 10 nM	85.3
sgRNA knockout: sgATG7, 100 nM	120
sgRNA knockout: sgATG7, 1000 nM	104
sgRNA knockout: sgERN1, 1 nM	99.3
sgRNA knockout: sgERN1, 10 nM	110
sgRNA knockout: sgERN1, 100 nM	122
sgRNA knockout: sgERN1, 1000 nM	89.3
sgRNA knockout: sgHSF1, 1 nM	117
sgRNA knockout: sgHSF1, 10 nM	119
sgRNA knockout: sgHSF1, 100 nM	111.3
sgRNA knockout: sgHSF1, 1000 nM	105
sgRNA knockout: sgHSF2, 1 nM	102
sgRNA knockout: sgHSF2, 10 nM	92.4
sgRNA knockout: sgHSF2, 100 nM	102
sgRNA knockout: sgHSF2, 1000 nM	98.4
sgRNA knockout: sgKEAP1, 1 nM	121
sgRNA knockout: sgKEAP1, 10 nM	80.6
sgRNA knockout: sgKEAP1, 100 nM	102
sgRNA knockout: sgKEAP1, 1000 nM	88.9
sgRNA knockout: sgNFE2L2, 1 nM	109
sgRNA knockout: sgNFE2L2, 10 nM	95.2
sgRNA knockout: sgNFE2L2, 100 nM	103
sgRNA knockout: sgNFE2L2, 1000 nM	90.5
sgRNA knockout: sgSLC35F2, 1 nM	108
sgRNA knockout: sgSLC35F2, 10 nM	104
sgRNA knockout: sgSLC35F2, 100 nM	107
sgRNA knockout: sgSLC35F2, 1000 nM	76.4
sgRNA knockout: sgXBP1, 1 nM	149
sgRNA knockout: sgXBP1, 10 nM	110
sgRNA knockout: sgXBP1, 100 nM	127
sgRNA knockout: sgXBP1, 1000 nM	93.4

C[C@H]1CCC/C=C/[C@@H]2C[C@H](O)C[C@H]2[C@H](O)/C=C/C(=O)O1 [BrefeldinA]
Conditions	relative cell number
sgRNA knockout: sgATF3, 10 nM	104
sgRNA knockout: sgATF3, 100 nM	18.1
sgRNA knockout: sgATF3, 1000 nM	8.8
sgRNA knockout: sgATF3, 10000 nM	8.7
sgRNA knockout: sgATF4, 10 nM	97
sgRNA knockout: sgATF4, 100 nM	9.44
sgRNA knockout: sgATF4, 1000 nM	7.97
sgRNA knockout: sgATF4, 10000 nM	11.9
sgRNA knockout: sgATF6, 10 nM	92.4
sgRNA knockout: sgATF6, 100 nM	15.4
sgRNA knockout: sgATF6, 1000 nM	10
sgRNA knockout: sgATF6, 10000 nM	8.34
sgRNA knockout: sgATG7, 10 nM	91.3
sgRNA knockout: sgATG7, 100 nM	20.1
sgRNA knockout: sgATG7, 1000 nM	8.35
sgRNA knockout: sgATG7, 10000 nM	10.2
sgRNA knockout: sgERN1, 10 nM	92.3
sgRNA knockout: sgERN1, 100 nM	14.58
sgRNA knockout: sgERN1, 1000 nM	6.83
sgRNA knockout: sgERN1, 10000 nM	8.24
sgRNA knockout: sgHSF1, 10 nM	83.5
sgRNA knockout: sgHSF1, 100 nM	13.4
sgRNA knockout: sgHSF1, 1000 nM	9
sgRNA knockout: sgHSF1, 10000 nM	10.2
sgRNA knockout: sgHSF2, 10 nM	84.5
sgRNA knockout: sgHSF2, 100 nM	14.5
sgRNA knockout: sgHSF2, 1000 nM	10.7
sgRNA knockout: sgHSF2, 10000 nM	12.1
sgRNA knockout: sgKEAP1, 10 nM	85.1
sgRNA knockout: sgKEAP1, 100 nM	10.4
sgRNA knockout: sgKEAP1, 1000 nM	8.59
sgRNA knockout: sgKEAP1, 10000 nM	7.27
sgRNA knockout: sgNFE2L2, 10 nM	87.6
sgRNA knockout: sgNFE2L2, 100 nM	13.3
sgRNA knockout: sgNFE2L2, 1000 nM	10.9
sgRNA knockout: sgNFE2L2, 10000 nM	8.44
sgRNA knockout: sgSLC35F2, 10 nM	74.5
sgRNA knockout: sgSLC35F2, 100 nM	16.5
sgRNA knockout: sgSLC35F2, 1000 nM	5.19
sgRNA knockout: sgSLC35F2, 10000 nM	11.2
sgRNA knockout: sgXBP1, 10 nM	76.7
sgRNA knockout: sgXBP1, 100 nM	16.3
sgRNA knockout: sgXBP1, 1000 nM	8.54
sgRNA knockout: sgXBP1, 10000 nM	10.9
